Results are given in words; binding and its absence hold for the method and conditions named. In cells and extracts the contact can be indirect. A result given as binding can be weak or reduced; the word gives no strength.
Target: FLAG-tagged RNase E (Caulobacter crescentus NA1000) (UniProt Q9A749)
Experiment: co-IP; FLAG-RNase E degradosomes isolated on anti-FLAG gel from NA1000 or ΔrhlB cells grown at 30°C or 15°C; Rho detected by immunoblot with anti-Rho serum

The chains behind the UniProt entries cited, without tags or fusion partners. Where a name states a change or a piece, a line headed by the entry shows the natural chain unless it says otherwise.
UniProt Q9A749: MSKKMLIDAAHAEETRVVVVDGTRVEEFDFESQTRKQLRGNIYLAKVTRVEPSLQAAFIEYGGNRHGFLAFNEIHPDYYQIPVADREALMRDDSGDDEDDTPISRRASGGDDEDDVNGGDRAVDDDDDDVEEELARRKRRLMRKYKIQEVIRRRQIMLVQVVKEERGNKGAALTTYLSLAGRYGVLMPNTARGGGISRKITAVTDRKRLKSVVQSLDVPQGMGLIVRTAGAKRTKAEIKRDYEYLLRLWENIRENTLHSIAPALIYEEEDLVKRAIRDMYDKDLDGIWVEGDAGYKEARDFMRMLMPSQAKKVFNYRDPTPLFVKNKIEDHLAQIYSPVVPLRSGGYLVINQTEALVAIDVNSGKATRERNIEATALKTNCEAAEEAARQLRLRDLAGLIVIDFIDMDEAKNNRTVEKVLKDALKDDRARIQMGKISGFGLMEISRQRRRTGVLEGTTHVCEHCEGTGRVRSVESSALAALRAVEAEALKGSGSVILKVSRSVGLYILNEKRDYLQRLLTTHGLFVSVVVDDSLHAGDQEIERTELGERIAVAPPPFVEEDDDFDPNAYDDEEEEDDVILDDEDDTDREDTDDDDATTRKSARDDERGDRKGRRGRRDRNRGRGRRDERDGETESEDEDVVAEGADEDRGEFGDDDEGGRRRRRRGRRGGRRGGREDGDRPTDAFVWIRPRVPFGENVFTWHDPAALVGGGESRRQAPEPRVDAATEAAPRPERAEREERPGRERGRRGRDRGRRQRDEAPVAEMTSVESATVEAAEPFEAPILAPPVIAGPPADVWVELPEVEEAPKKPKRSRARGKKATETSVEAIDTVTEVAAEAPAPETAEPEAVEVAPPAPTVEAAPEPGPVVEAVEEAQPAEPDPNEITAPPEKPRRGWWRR
UniProt A0A0H3CG88: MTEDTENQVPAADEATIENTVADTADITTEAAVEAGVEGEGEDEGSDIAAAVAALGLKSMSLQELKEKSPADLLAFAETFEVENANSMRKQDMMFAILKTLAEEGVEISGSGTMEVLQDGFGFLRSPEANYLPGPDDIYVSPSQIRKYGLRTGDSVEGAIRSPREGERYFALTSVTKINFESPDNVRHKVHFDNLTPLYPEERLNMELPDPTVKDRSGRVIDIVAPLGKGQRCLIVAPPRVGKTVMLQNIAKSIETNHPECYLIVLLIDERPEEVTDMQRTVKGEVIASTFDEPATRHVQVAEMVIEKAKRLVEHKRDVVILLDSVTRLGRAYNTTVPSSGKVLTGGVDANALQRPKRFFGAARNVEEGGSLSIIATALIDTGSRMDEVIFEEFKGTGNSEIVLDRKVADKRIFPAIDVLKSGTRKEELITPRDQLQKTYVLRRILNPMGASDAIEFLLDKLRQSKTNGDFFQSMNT

- binding: binds
Substance: transcription terminator Rho (CCNA_03876) (from UniProt A0A0H3CG88) (enzyme)
